These are yes or no findings as the source states them, for the method shown.

Amino acid sequences for entries named in this document (tags omitted). Residues count along the entry.
UniProt Q96SW2: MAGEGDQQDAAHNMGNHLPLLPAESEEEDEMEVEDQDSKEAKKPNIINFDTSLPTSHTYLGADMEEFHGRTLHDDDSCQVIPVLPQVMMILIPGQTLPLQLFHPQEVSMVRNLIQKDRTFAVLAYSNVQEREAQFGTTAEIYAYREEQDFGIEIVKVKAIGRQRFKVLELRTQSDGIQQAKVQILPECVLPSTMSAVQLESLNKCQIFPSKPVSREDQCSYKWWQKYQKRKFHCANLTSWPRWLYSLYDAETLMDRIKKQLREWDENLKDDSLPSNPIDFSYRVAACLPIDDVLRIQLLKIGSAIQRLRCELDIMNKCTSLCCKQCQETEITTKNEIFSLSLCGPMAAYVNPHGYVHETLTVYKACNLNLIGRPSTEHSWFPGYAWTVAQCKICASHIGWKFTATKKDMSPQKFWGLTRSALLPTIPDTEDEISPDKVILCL
UniProt Q9UJQ4, residues 410-432: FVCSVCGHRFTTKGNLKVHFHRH

The target of this assay is biotinylated CRBN (cereblon) (human) (UniProt Q96SW2). The assay can be described thus: AlphaScreen or HTRF; biotinylated CRBN (streptavidin donor beads) with FLAG-GST-Venus-m1, -m2 or -m3 (anti-DYKDDDDK mAb, Protein A acceptor beads); IMiD 50 µM; 100 mM Tris pH 8.0, 0.01% Tween20, 100 mM NaCl, 1 mg/ml BSA; 26 °C, 1 h; proteins from the wheat cell-free system.

On to “FLAG-GST-Venus-m3 (SALL4 410-432) (from UniProt Q9UJQ4 410-432) (domain or fragment)”, for which the binding entry is listed as “no binding”.

For the origin of these results see article PMC7501283.
